According to patent publication US20060111437A1, “Hyperlipemia therapeutic agent” (Kowa Co., Ltd., priority 2004, published 2006):
For at least one compound, name, drawing or mass did not settle the structure.

Test: Effect on blood triglyceride in rats after repeated oral administration
Type: in vivo
Settings: male Wistar rats; orally once a day for 21 days; pitavastatin calcium 10 mg/kg and/or EPA-E 1000 mg/kg; blood taken after fasting for 18 hours since final administration; FIG. 1
Description: Male Wistar rats aged 6 weeks (Japan Medical Science Experimental Animal Co., Ltd.) were tested. They were fed in a room maintained in a bright and dark cycle (bright duration by a room light: 7:00 a.m. to 7:00 p.m.) at a temperature of 23±3° C. and a humidity of 55±15% through an experimental duration and allowed to freely take a chow (CE-2; Nippon Clear Co., Ltd.) and city water. Pitavastatin calcium was suspended in a 0.5 mass % aqueous solution of sodium carboxymethyl cellulose (Iwai Kagaku Yakuhin Co., Ltd.) and controlled so that a dose was 2 ml/kg. Pitavastatin calcium contained 9.43 mass % of water, and therefore an amount as 1.1 mass time much as the dose was weighed to correct the practical dose. The suspension was refrigerated (4° C.) in a shaded bottle, and it was prepared every 7 days. EPA-E was taken from Epadel capsule (Dainippon Seiyaku Co., Ltd.) in use, suspended in refined water and controlled so that a dose was 2 ml/kg. […] The differences of multiple groups between the control group and the drug-administered groups were analyzed using Dunnett's multiple comparison test, preceded by Bartlett's analysis of variance.

Compound: CC/C=C\C/C=C\C/C=C\C/C=C\C/C=C\CCCC(=O)OCC [EPA-E, ethyl eicosapentaenoate]
- triglyceride concentration in blood: tended to be lowered
